{"sequences": {"note": "Chains of the proteins cited; added tags and fusions are not shown. Lines headed by an entry give the natural chain unless they say otherwise; changes in a name come on top.", "UniProt O00167": "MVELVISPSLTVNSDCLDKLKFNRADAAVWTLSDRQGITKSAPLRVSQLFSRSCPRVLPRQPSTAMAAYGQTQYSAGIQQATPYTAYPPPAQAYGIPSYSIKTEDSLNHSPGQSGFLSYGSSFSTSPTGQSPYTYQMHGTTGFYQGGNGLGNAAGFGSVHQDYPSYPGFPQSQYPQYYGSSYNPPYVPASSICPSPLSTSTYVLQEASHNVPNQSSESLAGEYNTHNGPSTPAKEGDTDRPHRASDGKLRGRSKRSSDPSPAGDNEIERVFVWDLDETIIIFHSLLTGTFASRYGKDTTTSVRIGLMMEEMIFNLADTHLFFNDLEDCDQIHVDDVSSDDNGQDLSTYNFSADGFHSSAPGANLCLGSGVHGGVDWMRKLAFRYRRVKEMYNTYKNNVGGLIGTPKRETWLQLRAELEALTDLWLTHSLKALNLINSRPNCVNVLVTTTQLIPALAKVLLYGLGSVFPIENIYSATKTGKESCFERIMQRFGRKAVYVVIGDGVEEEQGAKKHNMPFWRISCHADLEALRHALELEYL"}, "source": "PubChem BioAssay AID488837", "about": "(National Center for Advancing Translational Sciences (NCATS), 2010)", "note": "In all, about 330,000 compounds went through this assay and about 20 (0.006%) were called active. The inconclusive results got no clear call from the source; some entries with a clear call stand among them for comparison. Calls follow the shape of the dose curve; as a rule, active = well fitted inhibition curve with a large enough effect; inconclusive = small, poorly fitted or top-dose-only effect, or effect the other way; inactive = flat fitted curve, though single readings scatter. A potency beside an inconclusive call is a rough fit, not a confirmed value."}
{"target": "Protein phosphatase EYA2 (Homo sapiens) (UniProt O00167)", "assay": "qHTS Assay for Inhibitors of the Phosphatase Activity of Eya2; also: potency is read from the fitted curve at half-maximal effect", "details": "recombinant Eya2, OMFP fluorescence dephosphorylation (OMFP is methylfluorescein phosphate)", "how_it_was_run": "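Eya2 (0.2 uM) preincubated 10 min at ambient with compound, then OMFP substrate added at 50 uM; 10 min reaction in 50 mM HEPES pH 7.5, 50 mM NaCl, 5 uM MgCl2, 0.05% BSA, 1 mM DTT. Fluorescence read at Ex 485/Em 525 nm.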"}
{"compound": "CC(OC(=O)c1nsc(Cl)c1Cl)C(=O)NCCc1ccccc1", "note": "(stereo not given)", "Potency": "inconclusive: 15.8 µM [inhibitor, single point]"}
{"compound": "Cc1cc(C(F)(F)F)n2ncc(-c3cccc(Br)c3)c2n1", "Potency": "inconclusive: 89.1 µM [inhibitor, single point]"}
{"compound": "CCOC(=O)N1CCC(NC(=O)c2ccc3c(c2)N(C)CCS3)CC1", "Potency": "inactive"}
{"compound": "O=C(OCC(=O)N1CCc2ccccc21)c1ccc([N+](=O)[O-])cc1", "Potency": "inconclusive: 3980 µM [inhibitor, partial curve]"}
{"compound": "COc1ccc(C)cc1NC(=S)NNC(=O)c1c(Br)cnn1C", "Potency": "inconclusive: 100 µM [inhibitor, single point]"}
{"compound": "Cc1cccc(N2C(=O)c3cccc4c(N)ccc(c34)C2=O)c1", "Potency": "inconclusive: 39.8 µM [activator, partial curve]"}
{"compound": "COC(=O)NNC(=O)/C=C/c1ccccc1", "Potency": "inactive"}
{"compound": "CC(=O)n1c(C=Nc2ccc(Cl)cc2)c(O)c2ccccc21", "Potency": "inconclusive: 70.8 µM [inhibitor, single point]"}
{"compound": "Cc1ccc(-c2csc3nc(C)n(-n4c(C)ccc4C)c(=O)c23)o1", "Potency": "inactive"}
{"compound": "COc1ccc(-[n+]2c(C)cc(/C=C3\\Sc4ccccc4N3C)cc2C)cc1", "Potency": "inconclusive: 25.1 µM [activator, partial curve]"}
{"compound": "CCOC(=O)c1[nH]c(C)c(C(=O)OCC(=O)Nc2sc3c(c2C#N)CCCCC3)c1C", "Potency": "inconclusive: 20 µM [inhibitor, partial curve, poor fit]"}
{"compound": "Cc1ccc(NC(=O)COC(=O)CNC(=O)c2ccc(C)s2)cc1", "Potency": "inactive"}
{"compound": "O=C1CC(Cc2ccccc2)C(=O)N1c1ccccn1", "note": "(stereo not given)", "Potency": "inconclusive: 35.5 µM [inhibitor, partial curve]"}
{"compound": "CCOC(=O)Cn1nc(/C=C/c2ccccc2)ccc1=O", "Potency": "inactive"}
{"compound": "CCCC(O)(CCN1CCOCC1)c1ccc(Cl)cc1", "note": "(stereo not given)", "Potency": "inconclusive: 20 µM [inhibitor, single point]"}
{"compound": "O=C(COC(=O)c1ccc2c(c1)C(=O)N(Cc1ccco1)C2=O)NCC(F)(F)F", "Potency": "inconclusive: 126 µM [inhibitor, partial curve, poor fit]"}
{"compound": "Cc1nc([N+](=O)[O-])c(N2CCOCC2)n1Cc1ccccc1", "Potency": "inconclusive: 20 µM [inhibitor, single point]"}
{"compound": "CC(C)Cc1cc(-c2ccco2)c(C#N)c(N)n1", "Potency": "inactive"}
{"compound": "COc1ccc(NC(=O)c2ccc3c(=O)n(-c4ccc(OC)cc4OC)c(=S)[nH]c3c2)c(OC)c1", "Potency": "inconclusive: 70.8 µM [inhibitor, partial curve, poor fit]"}
{"compound": "CC[C@@H](Nc1ncnc2c1oc1ccccc12)C(=O)O", "Potency": "inconclusive: 100 µM [inhibitor, single point]"}
{"compound": "COc1cccc(N2C(=O)CN(Cc3cc(OC)c(OC)c(OC)c3)C2=S)c1", "Potency": "inactive"}
{"compound": "Cc1nnc(N/N=C/c2cccs2)[nH]c1=O", "Potency": "inconclusive: 79.4 µM [inhibitor, partial curve]"}
{"compound": "CCOc1ccccc1C1NC(=O)NC(C)=C1C(=O)OCc1ccccc1", "note": "(stereo not given)", "Potency": "inconclusive: 28.2 µM [inhibitor, single point]"}
{"compound": "Cc1cc(C)n(-c2ccc(Cl)c(C(=O)Nc3ccc(OC(F)(F)F)cc3)n2)n1", "Potency": "inactive"}
{"compound": "Cc1cc(CNCc2c(C(=O)N3CCCCCCC3)nc3ccc(Cl)cn23)nn1C", "Potency": "inconclusive: 112 µM [inhibitor, single point]"}
{"compound": "O=C(CN1C(=O)/C(=C/c2ccccc2F)Sc2ccccc21)NCCCN1CCOCC1", "Potency": "inconclusive: 25.1 µM [inhibitor, single point]"}
{"compound": "COc1ccc(CO[C@@H]2O[C@H](CO)[C@@H](O)[C@H](O)[C@H]2NC(C)=O)cc1OC", "Potency": "inconclusive: 25.1 µM [inhibitor, partial curve, poor fit]"}
{"compound": "Oc1cc(O)cc(/C=C/c2ccc(O)c(O)c2)c1", "Potency": "inactive"}
{"compound": "O=C(O)C(=O)Nc1ccc(NC(=O)C(c2ccccc2)c2ccccc2)cc1", "Potency": "inconclusive: 100 µM [inhibitor, single point]"}
{"compound": "CC(=O)Nc1cccc2c1C(=O)N(c1cccc(OC(C)=O)c1)C2=O", "Potency": "inconclusive: 112 µM [inhibitor, single point]"}
{"compound": "Cc1ccc(C)c(N2CCN(C(=O)Cn3ncn4cccc4c3=O)CC2)c1", "Potency": "inconclusive: 25.1 µM [inhibitor, partial curve]"}
{"compound": "CCCCc1nnc(NC(=O)C2CC(=O)N(c3ccc(C)cc3)C2)s1", "note": "(stereo not given)", "Potency": "inconclusive: 100 µM [inhibitor, single point]"}
{"compound": "CCOC(=O)C1=C(CC)Nc2ccccc2N=C1NC(=O)Nc1ccc(Cl)c(Cl)c1", "Potency": "inactive"}
{"compound": "COc1cc(NC(=O)C2CCCN2C(=O)OCc2ccccc2)cc(OC)c1", "note": "(stereo not given)", "Potency": "inconclusive: 14.1 µM [inhibitor, single point]"}
{"compound": "Cc1ccc(OC(=O)CCS(=O)(=O)c2ccc(C)cc2)cc1", "Potency": "inactive"}
{"compound": "Nc1nnnn1/N=C/c1ccc(F)cc1", "Potency": "inconclusive: 100 µM [inhibitor, single point]"}
{"compound": "S=c1[nH]nc(-c2ccco2)n1/N=C/C=C/c1ccccc1", "Potency": "inconclusive: 112 µM [inhibitor, single point]"}
{"compound": "COc1ccc([C@H]2CC(=O)C=C(c3ccccc3)C2)cc1OC", "Potency": "inactive"}
{"compound": "CCC(C(=O)O)N1C(=O)/C(=C/C(C)=C/c2ccccc2)SC1=S", "note": "(stereo not given)", "Potency": "inconclusive: 50.1 µM [inhibitor, single point]"}
{"compound": "N#Cc1ccc(OCc2nnc(SCC(=O)c3ccccc3)n2-c2ccccc2)cc1", "Potency": "inconclusive: 14.1 µM [inhibitor, single point]"}
{"compound": "O=C1CCCC(O)=C1Sc1ccccc1C(=O)O", "Potency": "inactive"}
{"compound": "Cc1ccc(NC(=O)C2CC(=O)Nc3nncn32)cc1", "note": "(stereo not given)", "Potency": "inconclusive: 22.4 µM [inhibitor, single point]"}
{"compound": "Cc1cccc2nc(-c3ccco3)c(Nc3ccc4c(c3)OCCO4)n12", "Potency": "inconclusive: 63.1 µM [inhibitor, partial curve]"}
{"compound": "Cc1cc(OC(C)C(=O)NCC2CCC(C(=O)O)CC2)c2c(C)cc(=O)oc2c1", "note": "(stereo not given)", "Potency": "inconclusive: 22.4 µM [inhibitor, single point]"}
{"compound": "Cc1cccc(NC(=O)CCS(=O)(=O)c2cccc3nonc23)c1C", "Potency": "inconclusive: 251 µM [inhibitor, partial curve, poor fit]"}
